Values from PubChem BioAssay AID504784 (Drosophila RNAi Screening Center, 2011).
In all, the deposit lists about 17,000 reagents; this is an unselected part of those with a known target gene and a result. 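Each column is one replicate's B-score; the combined score over replicates was not deposited, so single values may mislead.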 Reagents against one gene are numbered here. A plus sign joins genes that one reagent is predicted to hit. Further read-outs or replicates are left out here.

Test: 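Genome-wide knock-down for genes giving too much or too little stored lipid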 (primary screen)
Cells: Drosophila Kc167 embryonic cells
Reagent: long dsRNA against Drosophila genes, about 250 ng dsRNA per well
Duration: 4 days
Conditions: cells fed 400 µM oleic acid bound to BSA
Read-out: 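Cells imaged and segmented; ratio of lipid droplet area to nuclear area, log-transformed, then normalised as a B-score over the screen; higher means more stored lipid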
Direction: droplet/nuclear area B-score: higher = more stored lipid (overstorage)

How did the screen score CG15922?
droplet/nuclear area B-score, replicate 1: -2.25

With CG7272, how do the results read?
droplet/nuclear area B-score, replicate 1: 1.71

How did the screen score Khc (Kinesin heavy chain)?
droplet/nuclear area B-score, replicate 1: -0.709

With Sytalpha (Synaptotagmin alpha), what was measured?
droplet/nuclear area B-score, replicate 1: -1.6

With Oatp58Da (Organic anion transporting polypeptide 58Da), what does the deposit list?
droplet/nuclear area B-score, replicate 1: -0.514

For wrapper, how do the results read?
droplet/nuclear area B-score, replicate 1: 0.0707

For witty (without maturity) #1, what does the deposit list?
droplet/nuclear area B-score, replicate 1: -0.631

With witty (without maturity) #2, what does the deposit list?
droplet/nuclear area B-score, replicate 1: -0.903

With ProtA (Protamine A), what does the deposit list?
droplet/nuclear area B-score, replicate 1: -0.318

Which result is listed for Cht7 + tRNA:Cys-GCA-1-4 + tRNA:Lys-CTT-1-13?
droplet/nuclear area B-score, replicate 1: 1.42

With zye, what does the deposit list?
droplet/nuclear area B-score, replicate 1: -0.452

For Cyp301a1 (Cytochrome P450 301a1), how do the results read?
droplet/nuclear area B-score, replicate 1: 0.126

What is on record for CG3527?
droplet/nuclear area B-score, replicate 1: -1.19

With Cul4 (Cullin 4), how do the results read?
droplet/nuclear area B-score, replicate 1: 0.715

Which result is listed for CG13203?
droplet/nuclear area B-score, replicate 1: -0.0285

What is on record for GABA-B-R3 (metabotropic GABA-B receptor subtype 3)?
droplet/nuclear area B-score, replicate 1: -0.839

For Agpat1 (1-Acylglycerol-3-phosphate O-acyltransferase 1) #1, how do the results read?
droplet/nuclear area B-score, replicate 1: 0.0659

What did the screen give for Agpat1 (1-Acylglycerol-3-phosphate O-acyltransferase 1) #2?
droplet/nuclear area B-score, replicate 1: 0.154

With Osi23 (Osiris 23), how do the results read?
droplet/nuclear area B-score, replicate 1: -0.539

Which result is listed for CG12971?
droplet/nuclear area B-score, replicate 1: -1.07

With CG6204, how do the results read?
droplet/nuclear area B-score, replicate 1: 0.861

With CG18368, what does the deposit list?
droplet/nuclear area B-score, replicate 1: -0.375

How did the screen score CG16959?
droplet/nuclear area B-score, replicate 1: 1.07

With CG17717, what does the deposit list?
droplet/nuclear area B-score, replicate 1: -1.55

What is on record for dsb (debris buster) #1?
droplet/nuclear area B-score, replicate 1: 0.0504

What did the screen give for dsb (debris buster) #2?
droplet/nuclear area B-score, replicate 1: 0.432

For Pepck1 (Phosphoenolpyruvate carboxykinase 1), what does the deposit list?
droplet/nuclear area B-score, replicate 1: -1.98

For CG13577, how do the results read?
droplet/nuclear area B-score, replicate 1: 0.951

What is on record for CG30480?
droplet/nuclear area B-score, replicate 1: 0.433

For Ccp84Ac, how do the results read?
droplet/nuclear area B-score, replicate 1: 0.598

What is on record for Atg5 (Autophagy-related 5)?
droplet/nuclear area B-score, replicate 1: 0.0135

For CG15056, what was measured?
droplet/nuclear area B-score, replicate 1: 0.383

What did the screen give for nsl1 (non-specific lethal 1)?
droplet/nuclear area B-score, replicate 1: 0.145

How did the screen score BoYb?
droplet/nuclear area B-score, replicate 1: 0.553

With Spn75F (Serpin 75F), how do the results read?
droplet/nuclear area B-score, replicate 1: 0.529

What is on record for betaGlu (beta glucuronidase)?
droplet/nuclear area B-score, replicate 1: -0.236

How did the screen score Tssk (Testis-specific serine/threonine kinase)?
droplet/nuclear area B-score, replicate 1: 0.85

How did the screen score slif (slimfast)?
droplet/nuclear area B-score, replicate 1: -1.52

With CG12541, what does the deposit list?
droplet/nuclear area B-score, replicate 1: -0.82

Which result is listed for FoxL1 (Forkhead box L1)?
droplet/nuclear area B-score, replicate 1: -1.69
